In the supplement of paper PMC10849652:
The other results are listed elsewhere or left out.

Chains of the proteins cited; added tags and fusions are not shown. Lines headed by an entry give the natural chain unless they say otherwise; changes in a name come on top.
UniProt Q9H1K1: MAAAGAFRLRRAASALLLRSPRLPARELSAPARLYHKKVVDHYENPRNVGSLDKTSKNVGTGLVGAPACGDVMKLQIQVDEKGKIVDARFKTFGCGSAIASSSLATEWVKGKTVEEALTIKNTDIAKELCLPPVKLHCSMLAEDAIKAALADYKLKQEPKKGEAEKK
UniProt Q9Y6K9, whole entry, looked up: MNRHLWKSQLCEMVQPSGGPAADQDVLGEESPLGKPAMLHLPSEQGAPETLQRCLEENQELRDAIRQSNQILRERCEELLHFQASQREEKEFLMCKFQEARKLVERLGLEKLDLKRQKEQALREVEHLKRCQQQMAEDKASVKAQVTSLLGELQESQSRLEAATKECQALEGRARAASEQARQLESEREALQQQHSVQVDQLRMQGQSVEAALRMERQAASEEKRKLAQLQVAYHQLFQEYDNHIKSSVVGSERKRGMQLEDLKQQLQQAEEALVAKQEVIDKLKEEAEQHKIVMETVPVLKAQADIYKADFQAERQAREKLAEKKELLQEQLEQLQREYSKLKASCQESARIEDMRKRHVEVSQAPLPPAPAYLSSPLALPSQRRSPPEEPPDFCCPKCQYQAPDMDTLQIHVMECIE
UniProt Q13576: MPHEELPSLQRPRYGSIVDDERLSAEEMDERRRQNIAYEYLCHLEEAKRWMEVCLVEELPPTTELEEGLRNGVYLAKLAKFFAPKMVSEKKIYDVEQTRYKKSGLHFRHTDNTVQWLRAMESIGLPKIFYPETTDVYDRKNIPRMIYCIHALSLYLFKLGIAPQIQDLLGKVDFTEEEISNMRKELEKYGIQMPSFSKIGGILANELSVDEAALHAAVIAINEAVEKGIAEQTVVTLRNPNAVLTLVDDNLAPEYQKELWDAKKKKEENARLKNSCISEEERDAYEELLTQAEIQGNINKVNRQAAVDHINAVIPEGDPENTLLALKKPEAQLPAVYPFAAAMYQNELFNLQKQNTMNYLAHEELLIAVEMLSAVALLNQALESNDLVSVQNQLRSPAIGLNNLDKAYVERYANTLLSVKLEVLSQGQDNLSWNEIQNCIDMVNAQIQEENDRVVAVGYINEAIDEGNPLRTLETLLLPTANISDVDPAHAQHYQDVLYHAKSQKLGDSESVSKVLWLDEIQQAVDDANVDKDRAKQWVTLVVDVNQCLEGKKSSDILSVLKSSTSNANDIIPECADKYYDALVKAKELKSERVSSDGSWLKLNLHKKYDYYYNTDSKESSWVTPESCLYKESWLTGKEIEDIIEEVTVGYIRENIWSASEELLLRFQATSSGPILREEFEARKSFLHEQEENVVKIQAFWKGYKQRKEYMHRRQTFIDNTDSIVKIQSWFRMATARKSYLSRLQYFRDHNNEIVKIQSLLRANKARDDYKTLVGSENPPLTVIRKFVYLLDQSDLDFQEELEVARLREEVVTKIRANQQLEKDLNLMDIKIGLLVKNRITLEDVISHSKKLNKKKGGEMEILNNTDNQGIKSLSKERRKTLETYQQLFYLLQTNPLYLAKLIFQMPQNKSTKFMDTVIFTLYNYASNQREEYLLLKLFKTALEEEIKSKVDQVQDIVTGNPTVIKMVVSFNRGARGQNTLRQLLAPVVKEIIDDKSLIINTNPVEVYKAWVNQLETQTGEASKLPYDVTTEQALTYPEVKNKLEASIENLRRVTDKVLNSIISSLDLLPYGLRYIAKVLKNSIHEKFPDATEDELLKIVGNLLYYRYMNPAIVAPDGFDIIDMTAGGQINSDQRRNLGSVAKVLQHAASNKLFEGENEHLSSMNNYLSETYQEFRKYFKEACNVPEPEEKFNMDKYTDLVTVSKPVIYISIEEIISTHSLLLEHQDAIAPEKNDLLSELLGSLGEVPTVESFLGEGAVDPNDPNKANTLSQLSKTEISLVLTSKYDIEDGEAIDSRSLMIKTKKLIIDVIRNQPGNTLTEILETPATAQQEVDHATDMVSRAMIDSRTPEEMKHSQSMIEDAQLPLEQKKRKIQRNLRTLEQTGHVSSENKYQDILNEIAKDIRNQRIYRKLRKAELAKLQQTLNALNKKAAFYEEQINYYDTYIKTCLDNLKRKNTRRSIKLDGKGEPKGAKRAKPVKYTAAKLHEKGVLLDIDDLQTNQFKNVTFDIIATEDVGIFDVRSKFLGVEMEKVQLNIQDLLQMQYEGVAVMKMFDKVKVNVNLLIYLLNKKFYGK
UniProt Q96SY0, whole entry, looked up: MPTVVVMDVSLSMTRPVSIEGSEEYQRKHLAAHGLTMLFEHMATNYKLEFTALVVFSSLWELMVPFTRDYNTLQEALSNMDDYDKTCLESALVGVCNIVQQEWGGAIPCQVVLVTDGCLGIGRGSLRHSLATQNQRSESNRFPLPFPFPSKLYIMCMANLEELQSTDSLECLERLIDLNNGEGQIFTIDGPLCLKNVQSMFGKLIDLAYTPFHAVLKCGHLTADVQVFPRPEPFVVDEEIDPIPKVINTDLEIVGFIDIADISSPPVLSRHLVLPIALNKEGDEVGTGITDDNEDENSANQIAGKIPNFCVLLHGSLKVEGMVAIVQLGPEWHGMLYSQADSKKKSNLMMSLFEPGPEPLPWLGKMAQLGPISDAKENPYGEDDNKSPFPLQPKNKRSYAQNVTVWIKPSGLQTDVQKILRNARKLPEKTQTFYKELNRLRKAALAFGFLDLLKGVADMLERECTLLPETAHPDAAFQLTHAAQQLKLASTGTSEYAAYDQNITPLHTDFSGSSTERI
UniProt P53990, whole entry, looked up: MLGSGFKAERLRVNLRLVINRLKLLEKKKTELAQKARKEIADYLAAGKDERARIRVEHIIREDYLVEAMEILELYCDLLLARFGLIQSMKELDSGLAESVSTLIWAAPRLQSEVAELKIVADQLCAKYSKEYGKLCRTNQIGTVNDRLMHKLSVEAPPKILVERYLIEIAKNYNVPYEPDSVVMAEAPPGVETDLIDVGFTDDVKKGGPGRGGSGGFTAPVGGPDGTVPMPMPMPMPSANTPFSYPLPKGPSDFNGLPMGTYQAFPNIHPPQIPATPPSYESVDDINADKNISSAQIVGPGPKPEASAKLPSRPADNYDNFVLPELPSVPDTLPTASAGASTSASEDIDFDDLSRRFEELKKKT
UniProt Q68E01, whole entry, looked up: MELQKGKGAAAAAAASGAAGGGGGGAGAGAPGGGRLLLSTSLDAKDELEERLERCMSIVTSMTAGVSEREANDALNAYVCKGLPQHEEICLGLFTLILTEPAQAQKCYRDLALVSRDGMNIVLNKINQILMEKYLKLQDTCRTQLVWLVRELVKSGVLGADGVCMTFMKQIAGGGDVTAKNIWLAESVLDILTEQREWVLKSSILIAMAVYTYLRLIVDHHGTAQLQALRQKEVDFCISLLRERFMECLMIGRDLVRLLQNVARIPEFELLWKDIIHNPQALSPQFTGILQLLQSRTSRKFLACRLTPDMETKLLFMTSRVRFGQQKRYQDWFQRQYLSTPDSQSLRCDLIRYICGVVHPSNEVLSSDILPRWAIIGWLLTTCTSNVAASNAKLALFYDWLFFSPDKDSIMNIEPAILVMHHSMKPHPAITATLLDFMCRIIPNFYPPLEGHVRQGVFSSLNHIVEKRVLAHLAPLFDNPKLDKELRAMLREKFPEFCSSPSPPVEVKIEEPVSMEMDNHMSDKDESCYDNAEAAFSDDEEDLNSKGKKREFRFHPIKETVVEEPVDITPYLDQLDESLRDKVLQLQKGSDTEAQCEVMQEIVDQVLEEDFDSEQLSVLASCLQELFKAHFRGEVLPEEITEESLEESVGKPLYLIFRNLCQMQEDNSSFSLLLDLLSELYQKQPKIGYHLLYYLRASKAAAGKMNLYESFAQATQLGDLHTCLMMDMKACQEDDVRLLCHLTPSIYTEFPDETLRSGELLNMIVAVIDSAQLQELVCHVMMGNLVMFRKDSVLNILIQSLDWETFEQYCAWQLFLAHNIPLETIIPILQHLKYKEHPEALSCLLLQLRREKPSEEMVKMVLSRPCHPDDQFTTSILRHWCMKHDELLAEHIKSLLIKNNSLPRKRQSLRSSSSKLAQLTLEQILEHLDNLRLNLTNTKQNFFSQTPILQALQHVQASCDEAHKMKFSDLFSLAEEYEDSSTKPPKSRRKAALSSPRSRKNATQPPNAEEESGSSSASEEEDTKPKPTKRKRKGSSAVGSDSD
UniProt Q9ULR0: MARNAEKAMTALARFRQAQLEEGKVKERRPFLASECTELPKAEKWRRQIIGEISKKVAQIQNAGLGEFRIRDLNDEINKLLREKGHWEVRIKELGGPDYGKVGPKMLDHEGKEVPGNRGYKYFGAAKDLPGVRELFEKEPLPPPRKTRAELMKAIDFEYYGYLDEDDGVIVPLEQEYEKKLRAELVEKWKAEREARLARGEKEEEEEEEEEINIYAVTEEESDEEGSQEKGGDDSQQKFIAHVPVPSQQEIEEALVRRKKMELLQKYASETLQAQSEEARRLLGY
UniProt P18084: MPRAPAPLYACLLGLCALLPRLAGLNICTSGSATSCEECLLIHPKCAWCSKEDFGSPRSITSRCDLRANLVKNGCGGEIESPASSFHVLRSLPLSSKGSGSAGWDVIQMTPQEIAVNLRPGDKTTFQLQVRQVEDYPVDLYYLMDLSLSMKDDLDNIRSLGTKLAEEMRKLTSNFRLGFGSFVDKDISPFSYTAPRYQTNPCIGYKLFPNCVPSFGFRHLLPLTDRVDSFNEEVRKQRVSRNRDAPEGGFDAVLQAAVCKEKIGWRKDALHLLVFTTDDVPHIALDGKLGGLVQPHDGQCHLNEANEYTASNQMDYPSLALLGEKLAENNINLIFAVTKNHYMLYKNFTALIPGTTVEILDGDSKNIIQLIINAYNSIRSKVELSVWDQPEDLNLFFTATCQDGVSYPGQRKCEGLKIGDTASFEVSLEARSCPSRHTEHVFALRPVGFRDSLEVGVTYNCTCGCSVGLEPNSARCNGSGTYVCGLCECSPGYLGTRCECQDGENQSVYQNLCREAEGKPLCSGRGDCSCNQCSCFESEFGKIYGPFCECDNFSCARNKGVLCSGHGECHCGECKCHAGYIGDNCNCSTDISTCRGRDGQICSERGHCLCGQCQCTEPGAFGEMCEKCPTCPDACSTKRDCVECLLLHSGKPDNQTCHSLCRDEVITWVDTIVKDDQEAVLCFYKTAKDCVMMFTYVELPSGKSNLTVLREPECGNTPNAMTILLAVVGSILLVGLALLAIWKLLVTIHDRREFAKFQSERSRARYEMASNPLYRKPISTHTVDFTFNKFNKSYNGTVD
UniProt Q13572: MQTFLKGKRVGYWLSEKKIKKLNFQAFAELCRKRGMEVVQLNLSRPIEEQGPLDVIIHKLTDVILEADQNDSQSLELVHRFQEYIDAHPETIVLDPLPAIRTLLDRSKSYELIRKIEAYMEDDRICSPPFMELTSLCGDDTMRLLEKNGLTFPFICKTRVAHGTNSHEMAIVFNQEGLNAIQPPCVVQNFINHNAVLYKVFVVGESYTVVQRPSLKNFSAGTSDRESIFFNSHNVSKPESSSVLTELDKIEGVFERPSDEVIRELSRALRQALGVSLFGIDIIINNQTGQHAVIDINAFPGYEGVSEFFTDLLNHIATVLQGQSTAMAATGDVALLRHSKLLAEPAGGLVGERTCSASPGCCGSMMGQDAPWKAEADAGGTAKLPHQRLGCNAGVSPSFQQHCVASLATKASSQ
UniProt Q96T52: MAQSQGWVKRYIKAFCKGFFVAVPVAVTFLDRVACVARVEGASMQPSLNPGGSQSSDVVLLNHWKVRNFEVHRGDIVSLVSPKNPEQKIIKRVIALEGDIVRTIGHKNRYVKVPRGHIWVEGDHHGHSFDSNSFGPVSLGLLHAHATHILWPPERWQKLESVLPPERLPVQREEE
UniProt Q5TA45, whole entry, looked up: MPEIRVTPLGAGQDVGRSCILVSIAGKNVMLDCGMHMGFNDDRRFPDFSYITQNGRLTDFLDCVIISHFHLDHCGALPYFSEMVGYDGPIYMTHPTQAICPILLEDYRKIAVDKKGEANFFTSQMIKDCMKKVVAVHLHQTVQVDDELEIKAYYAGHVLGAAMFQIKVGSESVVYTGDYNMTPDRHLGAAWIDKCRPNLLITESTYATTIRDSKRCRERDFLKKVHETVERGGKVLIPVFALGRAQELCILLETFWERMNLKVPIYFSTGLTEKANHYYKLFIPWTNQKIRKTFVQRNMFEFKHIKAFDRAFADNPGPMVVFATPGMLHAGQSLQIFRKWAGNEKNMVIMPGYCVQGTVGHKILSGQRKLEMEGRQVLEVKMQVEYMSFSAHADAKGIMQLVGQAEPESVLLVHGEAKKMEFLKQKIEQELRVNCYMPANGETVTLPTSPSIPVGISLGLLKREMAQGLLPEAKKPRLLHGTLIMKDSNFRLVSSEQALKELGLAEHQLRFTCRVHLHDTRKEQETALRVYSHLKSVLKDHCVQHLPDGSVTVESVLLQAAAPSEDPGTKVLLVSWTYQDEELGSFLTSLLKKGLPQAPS
UniProt Q9BUE6: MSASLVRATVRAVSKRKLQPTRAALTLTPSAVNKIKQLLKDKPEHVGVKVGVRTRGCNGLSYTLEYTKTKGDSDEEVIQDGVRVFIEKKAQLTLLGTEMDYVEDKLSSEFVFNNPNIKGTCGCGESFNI

How the values were obtained:
Experiment in all cases: log2 fold change, soluble protein after heating vs DMSO (PISA); higher = thermal stabilisation; K562 cells, 10 uM, 30 min; active = over 0.2 and 3.5 SD of the protein, either way, in both replicates (recomputed)
[1] = compound: COC1=CC=C(C=C1)CN2C=CC3=C2C=C(C=C3)C(=O)NO
Method in brief: (§1)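 K562 cells (2×10^6 cells/mL) were treated with 10 μM compound for 30 min, and aliquots were heated for 3 min over 48°C-58°C. Pooled aliquots were extracted in PBS with 0.5% NP-40 at 4°C, and the supernatant after 21,000xg for 90 min was measured by TMTpro 16plex LC-MS/MS with channel sums equalised. Reported thermal stability, relative to control samples and from duplicates, is a log2 fold change.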

filanesib = compound: CON(C)C(=O)N1N=C(c2cc(F)ccc2F)S[C@@]1(CCCN)c1ccccc1 [filanesib]
Method in brief: as §1

zotarolimus = compound: CO[C@H]1C[C@@H]2CC[C@@H](C)[C@@](O)(O2)C(=O)C(=O)N2CCCC[C@H]2C(=O)O[C@H]([C@H](C)C[C@@H]2CC[C@H](n3cnnn3)[C@H](OC)C2)CC(=O)[C@H](C)/C=C(\C)[C@@H](O)[C@@H](OC)C(=O)[C@H](C)C[C@H](C)/C=C/C=C/C=C/1C [zotarolimus]
Method in brief: as §1

idasanutlin = compound: COc1cc(C(=O)O)ccc1NC(=O)[C@@H]1N[C@@H](CC(C)(C)C)[C@](C#N)(c2ccc(Cl)cc2F)[C@H]1c1cccc(Cl)c1F [idasanutlin]
Method in brief: as §1

alisertib = compound: COc1cc(Nc2ncc3c(n2)-c2ccc(Cl)cc2C(c2c(F)cccc2OC)=NC3)ccc1C(=O)O [alisertib]
Method in brief: as §1

[2] = compound: COc1cc2nc(-c3cc(F)ccc3O)nc(N[C@@H]3CNC[C@H]3C(C)(C)O)c2cc1OC
Method in brief: as §1

gefitinib = compound: COc1cc2ncnc(Nc3ccc(F)c(Cl)c3)c2cc1OCCCN1CCOCC1 [gefitinib]
Method in brief: as §1

[3] = compound: COc1cccc2cc(-c3nc([C@H]4CC[C@H](C(=O)O)CC4)n4ncnc(N)c34)[nH]c12
Method in brief: as §1

lapatinib = compound: CS(=O)(=O)CCNCc1ccc(-c2ccc3ncnc(Nc4ccc(OCc5cccc(F)c5)c(Cl)c4)c3c2)o1 [lapatinib]
Method in brief: as §1

pictilisib = compound: CS(=O)(=O)N1CCN(Cc2cc3nc(-c4cccc5[nH]ncc45)nc(N4CCOCC4)c3s2)CC1 [pictilisib]
Method in brief: as §1

[4] = compound: CS(=O)(=O)c1ccc(-c2cnc(N)c(C(=O)Nc3ccccc3)n2)cc1
Method in brief: as §1

crizotinib = compound: C[C@@H](Oc1cc(-c2cnn(C3CCNCC3)c2)cnc1N)c1c(Cl)ccc(F)c1Cl [crizotinib]
Method in brief: as §1

[5] = compound: C[C@@H]1COCCN1C2=NC(=NC(=C2)C3(CC3)S(=O)(=O)C)C4=C5C=CNC5=CC=C4
Method in brief: as §1

[6] = compound: C[C@H](C1=CC=C(C=C1)C(=O)NC2=C3C=CNC3=NC=C2)N
Method in brief: as §1

duvelisib = compound: C[C@H](Nc1ncnc2nc[nH]c12)c1cc2cccc(Cl)c2c(=O)n1-c1ccccc1 [duvelisib]
Method in brief: as §1

gandotinib = compound: Cc1cc(Nc2cc(CN3CCOCC3)c3nc(C)c(Cc4ccc(Cl)cc4F)n3n2)n[nH]1 [gandotinib]
Method in brief: as §1

tozasertib = compound: Cc1cc(Nc2cc(N3CCN(C)CC3)nc(Sc3ccc(NC(=O)C4CC4)cc3)n2)n[nH]1 [tozasertib]
Method in brief: as §1

[7] = compound: Cc1cc(SCc2sc(-c3ccc(C(F)(F)F)cc3)nc2C)ccc1OCC(=O)O
Method in brief: as §1

doramapimod = compound: Cc1ccc(-n2nc(C(C)(C)C)cc2NC(=O)Nc2ccc(OCCN3CCOCC3)c3ccccc23)cc1 [doramapimod]
Method in brief: as §1

ispinesib = compound: Cc1ccc(C(=O)N(CCCN)[C@@H](c2nc3cc(Cl)ccc3c(=O)n2Cc2ccccc2)C(C)C)cc1 [ispinesib]
Method in brief: as §1

Measured: log2 fold change

ISCU (UniProt Q9H1K1)
inactive: [1] -0.1 | filanesib -0.021 | zotarolimus -0.023 | idasanutlin 0.003 | alisertib 0.041 | [2] -0.025 | gefitinib -0.022 | [3] 0.043 | lapatinib 0.01 | pictilisib -0.037 | [4] 0.057 | crizotinib 0.063 | [5] 0.077 | [6] -0.002 | duvelisib 0.051 | gandotinib 0.008 | tozasertib -0.018 | [7] -0.057 | doramapimod 0 | ispinesib 0.019

IKBKG isoform 2 (UniProt Q9Y6K9)
inactive: [1] -0.019 | filanesib 0.01 | zotarolimus 0.02 | idasanutlin -0.01 | alisertib -0.089 | [2] -0.025 | gefitinib -0.011 | [3] -0.016 | lapatinib 0.032 | pictilisib 0.034 | [4] 0.049 | crizotinib 0.032 | [5] 0.06 | [6] -0.05 | duvelisib 0.007 | gandotinib 0.037 | tozasertib 0.006 | [7] -0.052 | doramapimod 0.016 | ispinesib 0.077

IQGAP2 (UniProt Q13576)
inactive: [1] -0.005 | filanesib 0.052 | zotarolimus 0.058 | idasanutlin 0.018 | alisertib 0.1 | [2] 0.036 | gefitinib 0.047 | [3] -0.107 | lapatinib -0.047 | pictilisib -0.022 | [4] 0.048 | crizotinib -0.179 | [5] 0.02 | [6] 0.086 | duvelisib -0.076 | gandotinib -0.135 | tozasertib -0.016 | [7] 0.103 | doramapimod 0.004 | ispinesib -0.221

IMPDH2 (UniProt P12268)
inactive: [1] -0.015 | filanesib 0.04 | zotarolimus 0.046 | idasanutlin 0.024 | alisertib -0.061 | [2] -0.078 | gefitinib -0.045 | [3] -0.039 | lapatinib 0.063 | pictilisib -0.016 | [4] -0.027 | crizotinib 0.001 | [5] -0.118 | [6] 0.085 | duvelisib -0.04 | gandotinib -0.014 | tozasertib 0.039 | [7] 0.03 | doramapimod 0.022 | ispinesib -0.08

INTS14 (UniProt Q96SY0)
inactive: [1] 0.068 | filanesib -0.028 | zotarolimus -0.027 | idasanutlin -0.033 | alisertib 0.008 | [2] -0.005 | gefitinib -0.011 | [3] 0.038 | lapatinib 0.031 | pictilisib -0.023 | [4] 0.034 | crizotinib -0.04 | [5] 0.084 | [6] -0.012 | duvelisib 0.032 | gandotinib 0.011 | tozasertib -0.017 | [7] 0.064 | doramapimod -0.028 | ispinesib 0.065

IST1 isoform 5 (UniProt P53990)
inactive: [1] -0.006 | filanesib -0.169 | zotarolimus 0.035 | idasanutlin -0.071 | alisertib -0.001 | [2] -0.008 | gefitinib -0.015 | [3] -0.111 | lapatinib -0.026 | pictilisib -0.035 | [4] -0.029 | crizotinib -0.08 | [5] 0.038 | [6] -0.054 | duvelisib 0.015 | gandotinib -0.085 | tozasertib -0.012 | [7] 0.074 | doramapimod -0.046 | ispinesib -0.149

INTS3 (UniProt Q68E01)
inactive: [1] 0.039 | filanesib 0.032 | zotarolimus 0.047 | idasanutlin -0.05 | alisertib -0.023 | [2] 0.033 | gefitinib 0.115 | [3] 0.148 | lapatinib -0.003 | pictilisib 0.019 | [4] -0.004 | crizotinib -0.036 | [5] -0.115 | [6] -0.039 | duvelisib 0.067 | gandotinib -0.136 | tozasertib -0.027 | [7] 0.035 | doramapimod 0.004 | ispinesib -0.016

IPO5 isoform 3 (UniProt O00410)
inactive: [1] 0.06 | filanesib -0.16 | zotarolimus 0.006 | idasanutlin -0.087 | alisertib -0.061 | [2] -0.136 | gefitinib -0.023 | [3] 0.022 | lapatinib 0.071 | pictilisib -0.068 | [4] -0.022 | crizotinib -0.199 | [5] 0.051 | [6] -0.084 | duvelisib -0.017 | gandotinib -0.194 | tozasertib -0.008 | [7] 0.029 | doramapimod -0.008 | ispinesib -0.034

INTS4 (UniProt Q96HW7)
inactive: [1] -0.021 | filanesib -0.001 | zotarolimus -0.028 | idasanutlin -0.061 | alisertib -0.002 | [2] 0.007 | gefitinib 0.028 | [3] 0.023 | lapatinib -0.009 | pictilisib 0.066 | [4] -0.005 | crizotinib 0.038 | [5] 0.021 | [6] -0.06 | duvelisib 0.032 | gandotinib -0.036 | tozasertib 0.027 | [7] 0.018 | doramapimod -0.046 | ispinesib 0.094

ISY1 isoform 1 (UniProt Q9ULR0)
inactive: [1] -0.074 | filanesib 0.086 | zotarolimus -0.033 | idasanutlin 0.021 | alisertib -0.029 | [2] 0.051 | gefitinib -0.045 | [3] 0.006 | lapatinib -0.008 | pictilisib 0.086 | [4] -0.022 | crizotinib 0.207 | [5] 0.045 | [6] 0.029 | duvelisib 0.045 | gandotinib 0.033 | tozasertib -0.007 | [7] -0.072 | doramapimod 0.023 | ispinesib 0.023

IREB2 (UniProt P48200)
inactive: [1] -0.169 | filanesib 0.032 | zotarolimus -0.009 | idasanutlin 0.033 | alisertib -0.056 | [2] 0.004 | gefitinib -0.067 | [3] -0.052 | lapatinib 0.011 | pictilisib 0.04 | [4] 0.013 | crizotinib -0.016 | [5] 0.026 | [6] 0.024 | duvelisib -0.037 | gandotinib -0.121 | tozasertib 0.002 | [7] 0.019 | doramapimod 0.079 | ispinesib -0.042

ITGB5 (UniProt P18084)
inactive: [1] 0.005 | filanesib -0.035 | zotarolimus -0.077 | idasanutlin 0.028 | alisertib 0.021 | [2] 0 | gefitinib 0.02 | [3] 0.075 | lapatinib -0.022 | pictilisib -0.027 | [4] 0.021 | crizotinib 0.013 | [5] -0.016 | [6] 0.094 | duvelisib 0.028 | gandotinib 0.1 | tozasertib -0.003 | [7] -0.044 | doramapimod 0.033 | ispinesib 0

ITPK1 (UniProt Q13572)
inactive: [1] -0.005 | filanesib -0.101 | zotarolimus 0.017 | idasanutlin -0.144 | alisertib 0.109 | [2] 0.058 | gefitinib 0.027 | [3] 0.087 | lapatinib -0.046 | pictilisib -0.003 | [4] -0.005 | crizotinib 0.02 | [5] 0.024 | [6] -0.06 | duvelisib 0.08 | gandotinib 0.026 | tozasertib -0.097 | [7] -0.031 | doramapimod 0.005 | ispinesib 0.122

IMMP2L (UniProt Q96T52)
inactive: [1] -0.077 | filanesib -0.027 | zotarolimus 0.012 | idasanutlin -0.103 | alisertib -0.094 | [2] 0.03 | gefitinib 0.027 | [3] 0.027 | lapatinib 0.02 | pictilisib -0.023 | [4] -0.086 | crizotinib 0.022 | [5] 0.024 | [6] -0.001 | duvelisib -0.005 | gandotinib -0.058 | tozasertib 0.072 | [7] -0.034 | doramapimod -0.002 | ispinesib 0.022

INTS11 (UniProt Q5TA45)
inactive: [1] 0.061 | filanesib -0.021 | zotarolimus 0.07 | idasanutlin -0.042 | alisertib -0.04 | [2] 0.006 | gefitinib 0.006 | [3] -0.019 | lapatinib 0.034 | pictilisib -0.005 | [4] -0.002 | crizotinib 0.14 | [5] -0.035 | [6] -0.031 | duvelisib -0.025 | gandotinib 0.051 | tozasertib 0.005 | [7] 0.039 | doramapimod 0.004 | ispinesib 0.028

ISCA1 isoform 2 (UniProt Q9BUE6)
inactive: [1] -0.091 | filanesib -0.128 | zotarolimus 0.065 | idasanutlin -0.001 | alisertib -0.009 | [2] -0.011 | gefitinib -0.091 | [3] 0.061 | lapatinib 0.036 | pictilisib 0.018 | [4] -0.018 | crizotinib 0.152 | [5] -0.051 | [6] 0 | duvelisib 0.088 | gandotinib -0.015 | tozasertib 0.032 | [7] -0.019 | doramapimod -0.086

Two neighbouring records from above, quoted:
IMMP2L (UniProt Q96T52)
inactive: [1] -0.077 | filanesib -0.027 | zotarolimus 0.012 | idasanutlin -0.103 | alisertib -0.094 | [2] 0.03 | gefitinib 0.027 | [3] 0.027 | lapatinib 0.02 | pictilisib -0.023 | [4] -0.086 | crizotinib 0.022 | [5] 0.024 | [6] -0.001 | duvelisib -0.005 | gandotinib -0.058 | tozasertib 0.072 | [7] -0.034 | doramapimod -0.002 | ispinesib 0.022

INTS11 (UniProt Q5TA45)
inactive: [1] 0.061 | filanesib -0.021 | zotarolimus 0.07 | idasanutlin -0.042 | alisertib -0.04 | [2] 0.006 | gefitinib 0.006 | [3] -0.019 | lapatinib 0.034 | pictilisib -0.005 | [4] -0.002 | crizotinib 0.14 | [5] -0.035 | [6] -0.031 | duvelisib -0.025 | gandotinib 0.051 | tozasertib 0.005 | [7] 0.039 | doramapimod 0.004 | ispinesib 0.028
